This assay has as its target HAB1 (Arabidopsis thaliana) (UniProt Q9CAJ0). Kind of assay: co-IP; Arabidopsis protoplasts co-transfected with Myc- and Flag-tagged constructs, 14-16 h; lysate (10 mM HEPES pH 7.5, 100 mM NaCl, 1 mM EDTA, 10% glycerol, 0.5% Triton X-100) on anti-c-Myc agarose 2 h at 4 °C; blots with anti-Flag and anti-Myc.

By UniProt entry, the sequences of proteins in these tests, tags left out. Where a name states a change or a piece, a line headed by the entry shows the natural chain unless it says otherwise.
UniProt Q9CAJ0: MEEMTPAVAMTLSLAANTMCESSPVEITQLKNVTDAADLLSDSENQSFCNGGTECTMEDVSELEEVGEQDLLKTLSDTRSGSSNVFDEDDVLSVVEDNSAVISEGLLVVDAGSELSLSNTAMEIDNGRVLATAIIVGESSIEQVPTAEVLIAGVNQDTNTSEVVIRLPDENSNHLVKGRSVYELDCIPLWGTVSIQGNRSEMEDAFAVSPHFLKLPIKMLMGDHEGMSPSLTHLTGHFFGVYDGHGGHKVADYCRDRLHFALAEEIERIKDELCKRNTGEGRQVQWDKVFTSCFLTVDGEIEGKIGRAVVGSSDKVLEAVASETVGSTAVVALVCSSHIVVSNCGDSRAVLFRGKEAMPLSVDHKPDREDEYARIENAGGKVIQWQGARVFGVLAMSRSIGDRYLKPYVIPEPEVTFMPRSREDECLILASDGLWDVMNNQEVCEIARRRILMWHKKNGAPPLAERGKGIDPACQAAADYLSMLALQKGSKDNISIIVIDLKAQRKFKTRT

This is an account of results in paper PMC4667695.

These are yes or no findings as the source states them, for the method shown. In cells and extracts the contact can be indirect. Tags and fused reporters may be left off the sequences shown.

B1: PUB13-Flag (enzyme, UniProt Q9SNC6 1-660)
chain: MEEEKASAAQSLIDVVNEIAAISDYRITVKKLCYNLARRLKLLVPMFEEIRESNEPISEDTLKTLMNLKEAMCSAKDYLKFCSQGSKIYLVMEREQVTSKLMEVSVKLEQSLSQIPYEELDISDEVREQVELVLSQFRRAKGRVDVSDDELYEDLQSLCNKSSDVDAYQPVLERVAKKLHLMEIPDLAQESVALHEMVASSGGDVGENIEEMAMVLKMIKDFVQTEDDNGEEQKVGVNSRSNGQTSTAASQKIPVIPDDFRCPISLEMMRDPVIVSSGQTYERTCIEKWIEGGHSTCPKTQQALTSTTLTPNYVLRSLIAQWCEANDIEPPKPPSSLRPRKVSSFSSPAEANKIEDLMWRLAYGNPEDQRSAAGEIRLLAKRNADNRVAIAEAGAIPLLVGLLSTPDSRIQEHSVTALLNLSICENNKGAIVSAGAIPGIVQVLKKGSMEARENAAATLFSLSVIDENKVTIGALGAIPPLVVLLNEGTQRGKKDAATALFNLCIYQGNKGKAIRAGVIPTLTRLLTEPGSGMVDEALAILAILSSHPEGKAIIGSSDAVPSLVEFIRTGSPRNRENAAAVLVHLCSGDPQHLVEAQKLGLMGPLIDLAGNGTDRGKRKAAQLLERISRLAEQQKETAVSQPEEEAEPTHPESTTEAADT
For B1, the binding entry is “no binding”.

B2: PUB12-Flag (enzyme, UniProt Q9ZV31 1-654)
chain: MAKSEKHKLAQTLIDSINEIASISDSVTPMKKHCANLSRRLSLLLPMLEEIRDNQESSSEVVNALLSVKQSLLHAKDLLSFVSHVSKIYLVLERDQVMVKFQKVTSLLEQALSIIPYENLEISDELKEQVELVLVQLRRSLGKRGGDVYDDELYKDVLSLYSGRGSVMESDMVRRVAEKLQLMTITDLTQESLALLDMVSSSGGDDPGESFEKMSMVLKKIKDFVQTYNPNLDDAPLRLKSSLPKSRDDDRDMLIPPEEFRCPISLELMTDPVIVSSGQTYERECIKKWLEGGHLTCPKTQETLTSDIMTPNYVLRSLIAQWCESNGIEPPKRPNISQPSSKASSSSSAPDDEHNKIEELLLKLTSQQPEDRRSAAGEIRLLAKQNNHNRVAIAASGAIPLLVNLLTISNDSRTQEHAVTSILNLSICQENKGKIVYSSGAVPGIVHVLQKGSMEARENAAATLFSLSVIDENKVTIGAAGAIPPLVTLLSEGSQRGKKDAATALFNLCIFQGNKGKAVRAGLVPVLMRLLTEPESGMVDESLSILAILSSHPDGKSEVGAADAVPVLVDFIRSGSPRNKENSAAVLVHLCSWNQQHLIEAQKLGIMDLLIEMAENGTDRGKRKAAQLLNRFSRFNDQQKQHSGLGLEDQISLI
Turning to B2, the binding entry is “no binding”.
